Measured values as given in patent US9884813B1, “Pharmaceutically acceptable salts of B-guanidinopropionic acid with improved properties and uses thereof” (Rgenix, Inc., priority 2017, dated 2018).

Experiment: Roller compaction feasibility (slugs, capsule fill)
Conditions: for Average Net Weight: size 0 capsule, roller compacted API
Experimental: Roller compaction feasibility was performed by producing slugs using a single station hand press then carefully hand milling those slugs so that all granules were small enough to pass through a size US 18 mesh. These granules were then filled into size 0 capsules by both the free flow and tamp method. A total of N=5 capsules were filled for each lot for each method. The average net fill weight results are given below in […]. The same issue was not seen when compressing the succinate salt form of β-GPA. Slugs produced around 1500 PSI produced slugs hard enough to be tested for hardness. The resulting slug parameters can be seen in Table 33.

SMILES	Average Net Weight (Free Flow fill)	Average Net Weight (Tamp fill)	increase of maximum capsule fill weight after roller compaction (both free flow and tamp filled capsules)
N=C(N)NCCC(=O)O.N=C(N)NCCC(=O)O.O=C(O)CCC(=O)O [β-GPA succinate (2:1)]	335.4 mg	574.6 mg	–
N=C(N)NCCC(=O)O [β-GPA, β-Guanidinopropionic acid, reference compound]	303.6 mg	568.2 mg	roughly 100 mg
